The supplement of paper PMC8728848
The other results are listed elsewhere or left out.

Columns and labels:
Test in all cases: glycan array binding signal (z-score within array); higher = stronger binding
Conditions in all cases: glycan notation: IUPAC condensed, linker removed
[1] = target: Fuc(a1-2)Gal6S(b1-3)GlcNAc
Summary of the method: (§1)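 Negative Z-scores can be read as non-binding. The Z-score is calculated within each array and then averaged across arrays of one protein sequence at different concentrations or buffers and across linkers. Arrays, 3228 in all, were curated from the Consortium for Functional Glycomics database and kept only where the protein sequence was available.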

[2] = target: Fuc(a1-2)Gal6S(b1-3)GlcNAc6S
Summary of the method: as §1

Fuc(a1-2)Gal6S(b1-4)Glc = target: Fuc(a1-2)Gal6S(b1-4)Glc
Summary of the method: as §1

[3] = target: Fuc(a1-2)Gal6S(b1-4)Glc6S
Summary of the method: as §1

Fuc(a1-2)[Gal(a1-3)]Gal = target: Fuc(a1-2)[Gal(a1-3)]Gal
Summary of the method: as §1

[4] = target: Fuc(a1-2)[Gal(a1-3)]Gal(b1-3)GalNAc
Summary of the method: as §1

[5] = target: Fuc(a1-2)[Gal(a1-3)]Gal(b1-3)GalNAc(b1-3)Gal(a1-4)Gal(b1-4)Glc
Summary of the method: as §1

[6] = target: Fuc(a1-2)[Gal(a1-3)]Gal(b1-3)GlcNAc
Summary of the method: as §1

[7] = target: Fuc(a1-2)[Gal(a1-3)]Gal(b1-3)GlcNAc(b1-2)Man(a1-3)[Fuc(a1-2)[Gal(a1-3)]Gal(b1-3)GlcNAc(b1-2)Man(a1-6)]Man(b1-4)GlcNAc(b1-4)GlcNAc
Summary of the method: as §1

[8] = target: Fuc(a1-2)[Gal(a1-3)]Gal(b1-3)GlcNAc(b1-2)Man(a1-3)[Fuc(a1-2)[Gal(a1-3)]Gal(b1-3)GlcNAc(b1-2)Man(a1-6)]Man(b1-4)GlcNAc(b1-4)[Fuc(a1-6)]GlcNAc
Summary of the method: as §1

[9] = target: Fuc(a1-2)[Gal(a1-3)]Gal(b1-3)GlcNAc(b1-3)GalNAc
Summary of the method: as §1

[10] = target: Fuc(a1-2)[Gal(a1-3)]Gal(b1-3)GlcNAc(b1-6)GalNAc
Summary of the method: as §1

[11] = target: Fuc(a1-2)[Gal(a1-3)]Gal(b1-4)Glc
Summary of the method: as §1

[12] = target: Fuc(a1-2)[Gal(a1-3)]Gal(b1-4)GlcNAc
Summary of the method: as §1

[13] = target: Fuc(a1-2)[Gal(a1-3)]Gal(b1-4)GlcNAc(b1-2)Man
Summary of the method: as §1

[14] = target: Fuc(a1-2)[Gal(a1-3)]Gal(b1-4)GlcNAc(b1-2)Man(a1-3)[Fuc(a1-2)[Gal(a1-3)]Gal(b1-4)GlcNAc(b1-2)Man(a1-6)]Man(b1-4)GlcNAc(b1-4)GlcNAc
Summary of the method: as §1

[15] = target: Fuc(a1-2)[Gal(a1-3)]Gal(b1-4)GlcNAc(b1-2)Man(a1-3)[Fuc(a1-2)[Gal(a1-3)]Gal(b1-4)GlcNAc(b1-2)Man(a1-6)]Man(b1-4)GlcNAc(b1-4)[Fuc(a1-6)]GlcNAc
Summary of the method: as §1

[16] = target: Fuc(a1-2)[Gal(a1-3)]Gal(b1-4)GlcNAc(b1-3)GalNAc
Summary of the method: as §1

[17] = target: Fuc(a1-2)[Gal(a1-3)]Gal(b1-4)GlcNAc(b1-3)[Fuc(a1-2)[Gal(a1-3)]Gal(b1-4)GlcNAc(b1-6)]GalNAc
Summary of the method: as §1

[18] = target: Fuc(a1-2)[Gal(a1-3)]Gal(b1-4)GlcNAc(b1-6)GalNAc
Summary of the method: as §1

[19] = target: Fuc(a1-2)[Gal(a1-3)]Gal(b1-4)[Fuc(a1-3)]Glc
Summary of the method: as §1

[20] = target: Fuc(a1-2)[Gal(a1-3)]Gal(b1-4)[Fuc(a1-3)]GlcNAc
Summary of the method: as §1

[21] = target: Fuc(a1-2)[Gal(a1-3)]Gal(b1-4)[Fuc(a1-3)]GlcNAc(b1-3)GalNAc
Summary of the method: as §1

[22] = target: Fuc(a1-2)[Gal(a1-4)]Gal(b1-4)GlcNAc
Summary of the method: as §1

[23] = target: Fuc(a1-2)[GalNAc(a1-3)]Gal
Summary of the method: as §1

[24] = target: Fuc(a1-2)[GalNAc(a1-3)]Gal(b1-3)GalNAc(a1-3)[Fuc(a1-2)]Gal(b1-4)GlcNAc
Summary of the method: as §1

[25] = target: Fuc(a1-2)[GalNAc(a1-3)]Gal(b1-3)GalNAc(b1-3)Gal(a1-4)Gal(b1-4)Glc
Summary of the method: as §1

[26] = target: Fuc(a1-2)[GalNAc(a1-3)]Gal(b1-3)GlcNAc
Summary of the method: as §1

[27] = target: Fuc(a1-2)[GalNAc(a1-3)]Gal(b1-3)GlcNAc(b1-2)Man(a1-3)[Fuc(a1-2)[GalNAc(a1-3)]Gal(b1-3)GlcNAc(b1-2)Man(a1-6)]Man(b1-4)GlcNAc(b1-4)GlcNAc
Summary of the method: as §1

[28] = target: Fuc(a1-2)[GalNAc(a1-3)]Gal(b1-3)GlcNAc(b1-2)Man(a1-3)[Fuc(a1-2)[GalNAc(a1-3)]Gal(b1-3)GlcNAc(b1-2)Man(a1-6)]Man(b1-4)GlcNAc(b1-4)[Fuc(a1-6)]GlcNAc
Summary of the method: as §1

[29] = target: Fuc(a1-2)[GalNAc(a1-3)]Gal(b1-3)GlcNAc(b1-3)GalNAc
Summary of the method: as §1

[30] = target: Fuc(a1-2)[GalNAc(a1-3)]Gal(b1-3)GlcNAc(b1-6)GalNAc
Summary of the method: as §1

[31] = target: Fuc(a1-2)[GalNAc(a1-3)]Gal(b1-4)Glc
Summary of the method: as §1

[32] = target: Fuc(a1-2)[GalNAc(a1-3)]Gal(b1-4)GlcNAc
Summary of the method: as §1

[33] = target: Fuc(a1-2)[GalNAc(a1-3)]Gal(b1-4)GlcNAc(b1-2)Man
Summary of the method: as §1

[34] = target: Fuc(a1-2)[GalNAc(a1-3)]Gal(b1-4)GlcNAc(b1-2)Man(a1-3)[Fuc(a1-2)[GalNAc(a1-3)]Gal(b1-4)GlcNAc(b1-2)Man(a1-6)]Man(b1-4)GlcNAc(b1-4)GlcNAc
Summary of the method: as §1

[35] = target: Fuc(a1-2)[GalNAc(a1-3)]Gal(b1-4)GlcNAc(b1-2)Man(a1-3)[Fuc(a1-2)[GalNAc(a1-3)]Gal(b1-4)GlcNAc(b1-2)Man(a1-6)]Man(b1-4)GlcNAc(b1-4)[Fuc(a1-6)]GlcNAc
Summary of the method: as §1

[36] = target: Fuc(a1-2)[GalNAc(a1-3)]Gal(b1-4)GlcNAc(b1-3)Gal(b1-4)GlcNAc
Summary of the method: as §1

[37] = target: Fuc(a1-2)[GalNAc(a1-3)]Gal(b1-4)GlcNAc(b1-3)Gal(b1-4)GlcNAc(b1-3)Gal(b1-4)GlcNAc
Summary of the method: as §1

[38] = target: Fuc(a1-2)[GalNAc(a1-3)]Gal(b1-4)GlcNAc(b1-3)GalNAc
Summary of the method: as §1

[39] = target: Fuc(a1-2)[GalNAc(a1-3)]Gal(b1-4)GlcNAc(b1-3)[Fuc(a1-2)[GalNAc(a1-3)]Gal(b1-4)GlcNAc(b1-6)]GalNAc
Summary of the method: as §1

[40] = target: Fuc(a1-2)[GalNAc(a1-3)]Gal(b1-4)GlcNAc(b1-6)GalNAc
Summary of the method: as §1

[41] = target: Fuc(a1-2)[GalNAc(a1-3)]Gal(b1-4)[Fuc(a1-3)]GlcNAc
Summary of the method: as §1

[42] = target: Fuc(a1-2)[GalNAc(a1-3)]Gal(b1-4)[Fuc(a1-3)]GlcNAc(b1-3)GalNAc
Summary of the method: as §1

[43] = target: Fuc(a1-2)[GalNAc(a1-4)]Gal(b1-4)GlcNAc
Summary of the method: as §1

B1: CcfD (Bacteroides vulgatus), A6KYX8 (protein)
chain: MKYKNYFKSIIYLALGAFTLGSCEDFLDRQEDEKLTFDKIWESRNTTQQYWLNAMSFLPNENGSLQGDTEPYLGASDECTIAYDRQYRWINFGTWNPSQVPYYKMDHYYKGIRECNIFLQNVYKCSDPLVTKDQLDEWYWQTRFARAYYYFLMMRDYGPVFLLGDDLLDFTASTEELYRPRNTWDQCVNYVVSEMTQCAESGVVLQQSDLPAAKWGLATVGTCHAVISRLLLYSARPLFNGNKLYSTVKNPDAPDFPELSGVKLFPELDNTKWQKAAEAAKKLIDNPCYELYRAGNDNPYEDYYGVTHETWNKELIWTDRYNGLFSWGVGTVPTGVAGTAYGAVGPTQALVDAYAMNTGWYPITGYEADGTPIVEPLSGYELASELEKSSWIYPSGGWSNKADFEIEAPNMYKDREPRFYVTVFFGGNQWLHGNSATSISFAKGGNGNKSHDYPKSGYLCNRFYDHKLNSSEGQWGNITFPVFRLGEIYLNFIEAVLECKKNGVALDPSYEALAMEKWADLRKRAGLDPITSIYGQVSTEELIQLCRKERQIELAFERHRYFDTRTWMIATQTDNGKMYGMNTSCPLDAGMKGTETPDGFWERTAFETRVFQNKHYLYPFSQRELDRNKLLTQNYGW
glycan array binding signal (z-score) [1]: 0.603 | glycan array binding signal (z-score) [2]: -0.602 | glycan array binding signal (z-score) (Fuc(a1-2)Gal6S(b1-4)Glc): 0.435 | glycan array binding signal (z-score) [3]: -0.114 | glycan array binding signal (z-score) (Fuc(a1-2)[Gal(a1-3)]Gal): -0.721 | glycan array binding signal (z-score) [4]: -0.729 | glycan array binding signal (z-score) [5]: -0.653 | glycan array binding signal (z-score) [6]: -0.421 | glycan array binding signal (z-score) [7]: 3.23 | glycan array binding signal (z-score) [8]: -0.424 | glycan array binding signal (z-score) [9]: 0.628 | glycan array binding signal (z-score) [10]: -0.876 | glycan array binding signal (z-score) [11]: -0.612 | glycan array binding signal (z-score) [12]: 0.079 | glycan array binding signal (z-score) [13]: -0.282 | glycan array binding signal (z-score) [14]: -0.566 | glycan array binding signal (z-score) [15]: -0.683 | glycan array binding signal (z-score) [16]: 0.414 | glycan array binding signal (z-score) [17]: -1.06 | glycan array binding signal (z-score) [18]: 0.176 | glycan array binding signal (z-score) [19]: 0.191 | glycan array binding signal (z-score) [20]: 0.89 | glycan array binding signal (z-score) [21]: 0.465 | glycan array binding signal (z-score) [22]: -0.495 | glycan array binding signal (z-score) [23]: -0.205 | glycan array binding signal (z-score) [24]: 1.49 | glycan array binding signal (z-score) [25]: -0.398 | glycan array binding signal (z-score) [26]: 0.201 | glycan array binding signal (z-score) [27]: -0.622 | glycan array binding signal (z-score) [28]: -0.607 | glycan array binding signal (z-score) [29]: 0.404 | glycan array binding signal (z-score) [30]: -0.82 | glycan array binding signal (z-score) [31]: -0.353 | glycan array binding signal (z-score) [32]: -0.439 | glycan array binding signal (z-score) [33]: 0.054 | glycan array binding signal (z-score) [34]: 4.4 | glycan array binding signal (z-score) [35]: -0.266 | glycan array binding signal (z-score) [36]: 0.166 | glycan array binding signal (z-score) [37]: -0.825 | glycan array binding signal (z-score) [38]: 0.155 | glycan array binding signal (z-score) [39]: 0.323 | glycan array binding signal (z-score) [40]: -0.871 | glycan array binding signal (z-score) [41]: 0.648 | glycan array binding signal (z-score) [42]: 0.46 | glycan array binding signal (z-score) [43]: -1.07
